# Article PMC4958977, “Revisiting the mechanism of coagulation factor XIII activation and regulation from a structure/functional perspective” (Scientific Reports, 2016)
# Results are given in words; binding and its absence hold for the method and conditions named.
# T1: coagulation factor XIII A subunit after cleavage by thrombin (activation peptide FXIII-AP cut off at Arg37-Gly38) (human) (UniProt P00488)
# T1 sequence: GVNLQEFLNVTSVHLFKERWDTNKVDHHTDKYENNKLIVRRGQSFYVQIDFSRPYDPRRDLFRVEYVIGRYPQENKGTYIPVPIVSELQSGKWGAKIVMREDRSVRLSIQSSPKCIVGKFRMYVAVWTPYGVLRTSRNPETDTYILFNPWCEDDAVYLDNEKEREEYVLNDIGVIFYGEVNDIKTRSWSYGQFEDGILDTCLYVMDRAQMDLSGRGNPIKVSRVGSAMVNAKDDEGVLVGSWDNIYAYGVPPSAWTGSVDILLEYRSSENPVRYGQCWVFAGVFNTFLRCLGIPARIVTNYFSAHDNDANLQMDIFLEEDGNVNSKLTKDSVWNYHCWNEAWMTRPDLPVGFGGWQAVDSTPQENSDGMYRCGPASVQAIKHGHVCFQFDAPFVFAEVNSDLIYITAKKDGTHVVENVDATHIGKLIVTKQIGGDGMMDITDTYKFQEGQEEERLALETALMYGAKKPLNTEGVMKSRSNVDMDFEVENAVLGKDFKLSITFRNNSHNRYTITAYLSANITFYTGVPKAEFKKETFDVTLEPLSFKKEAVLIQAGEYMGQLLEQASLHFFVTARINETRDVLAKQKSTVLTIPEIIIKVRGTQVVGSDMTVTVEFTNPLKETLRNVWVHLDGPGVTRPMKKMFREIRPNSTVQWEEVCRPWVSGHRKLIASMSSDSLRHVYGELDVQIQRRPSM
# Target: T1, coagulation factor XIII A subunit after cleavage by thrombin (activation peptide FXIII-AP cut off at Arg37-Gly38) (human)
# Test: condition: only with 25 mM CaCl2 after thrombin cleavage; SEC; 25 ug purified FXIIIA2B2 incubated with 46.2 U/mL thrombin and 25 mM CaCl2, 20 mM Tris, 120 mM NaCl, pH 7.4, 60 minutes at 30 degrees; Superdex 200 PC 3.2/30; peaks checked by native PAGE and mass spectrometry; both purified
binder,measurement,value
"coagulation factor XIII B subunit (natural protein, human, UniProt P05160 21-661, looked up, human coagulation factor XIII B subunit from plasma, ten Sushi domains; 80 kDa; also called FXIIIB; FXIIIB2; source: purified as FXIIIA2B2 from plasma concentrate Fibrogammin P (CSL Behring), gel filtration on Superdex 200) EEKPCGFPHVENGRIAQYYYTFKSFYFPMSIDKKLSFFCLAGYTTESGRQEEQTTCTTEGWSPEPRCFKKCTKPDLSNGYISDVKLLYKIQENMRYGCASGYKTTGGKDEEVVQCLSDGWSSQPTCRKEHETCLAPELYNGNYSTTQKTFKVKDKVQYECATGYYTAGGKKTEEVECLTYGWSLTPKCTKLKCSSLRLIENGYFHPVKQTYEEGDVVQFFCHENYYLSGSDLIQCYNFGWYPESPVCEGRRNRCPPPPLPINSKIQTHSTTYRHGEIVHIECELNFEIHGSAEIRCEDGKWTEPPKCIEGQEKVACEEPPFIENGAANLHSKIYYNGDKVTYACKSGYLLHGSNEITCNRGKWTLPPECVENNENCKHPPVVMNGAVADGILASYATGSSVEYRCNEYYLLRGSKISRCEQGKWSSPPVCLEPCTVNVDYMNRNNIEMKWKYEGKVLHGDLIDFVCKQGYDLSPLTPLSELSVQCNRGEVKYPLCTRKESKGMCTSPPLIKHGVIISSTVDTYENGSSVEYRCFDHHFLEGSREAYCLDGMWTTPPLCLEPCTLSFTEMEKNNLLLKWDFDNRPHILHGEYIEFICRGDTYPAELYITGSILRMQCDRGQLKYPRCIPRQSTLSYQEPLRT",binding,no binding
